PubChem BioAssay AID743121 – NCATS | 2013

- Aim: 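Knock-downs that sensitise breast cancer cells to camptothecin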 (primary screen)
- Cell system: MDA-MB-231 cells, a human breast cancer line
- Knock-down reagent: single siRNA against human genes, 20 nM siRNA (0.8 pmol per well)
- Time to read-out: 120 h (drug added 48 h after transfection, read 72 h later)
- Treatment: camptothecin 20 nM (about EC30) for 72 h; vehicle 0.1% DMSO in parallel plates
- Measured: 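CellTiter-Glo ATP signal, scaled to control siRNA as percent viability; sensitisation given as log2 of untreated divided by camptothecin-treated viability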
- Scale: log2 vehicle/camptothecin viability: higher = stronger sensitisation to camptothecin; viability with camptothecin and viability without drug: higher = more viable cells
- Rule for the call: 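Each gene scored by redundant siRNA activity (RSA) over its individual siRNA ratios; a gene is called active at p < 0.001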
The deposit covers about 26,000 reagents; below is a part drawn at random. Over the whole deposit, 167 (0.63%) were called active. 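Calls are per gene from RSA p-values that are not deposited; an individual active-marked siRNA can sensitise only weakly.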 Unmarked entries are inactive. Reagents against one gene are numbered here. No sequences are given here.

Target gene	reagent	log2 vehicle/camptothecin viability	viability with camptothecin (% of control)	viability without drug (% of control)
ADCY2 (adenylate cyclase 2)	1	-0.0274	100	98.1
ADCY2 (adenylate cyclase 2)	2	-0.234	56.7	48.2
ADCY2 (adenylate cyclase 2)	3	-0.45	75.6	55.4
ADCY2 (adenylate cyclase 2)	4	-0.272	83.3	68.9
TGIF1 (TGFB induced factor homeobox 1)	1	-0.101	99.9	93.2
TGIF1 (TGFB induced factor homeobox 1)	2	-0.172	65.3	58
TGIF1 (TGFB induced factor homeobox 1)	3	-0.72	71.4	43.3
SLC25A29	1	0.387	44	57.5
SLC25A29	2	-0.142	76.3	69.2
SLC25A29	3	-0.122	74.7	68.7
ENPEP (glutamyl aminopeptidase)	1	-0.0417	110	107
ENPEP (glutamyl aminopeptidase)	2	0.479	61.6	85.8
ENPEP (glutamyl aminopeptidase)	3	-0.433	107	79.4
ENPEP (glutamyl aminopeptidase)	4	-0.0758	103	97.5
OR10A2 (olfactory receptor family 10 subfamily A member 2)	1	-0.405	97.3	73.5
HIPK4 (homeodomain interacting protein kinase 4)	1	-0.702	115	70.9
HIPK4 (homeodomain interacting protein kinase 4)	2	-0.0766	103	98.1
HIPK4 (homeodomain interacting protein kinase 4)	3	0.106	54.7	58.8
HIPK4 (homeodomain interacting protein kinase 4)	4	-0.184	112	98.3
LDLRAD3 (low density lipoprotein receptor class A domain containing 3)	1	0.012	93.7	94.5
LDLRAD3 (low density lipoprotein receptor class A domain containing 3)	2	-0.186	86.9	76.4
LDLRAD3 (low density lipoprotein receptor class A domain containing 3)	3	0.444	65.3	88.9
LDLRAD3 (low density lipoprotein receptor class A domain containing 3)	4	0.125	60.9	66.4
TFEB (transcription factor EB)	1	-0.227	84.2	72
TFEB (transcription factor EB)	2	-0.723	2.71	1.64
TFEB (transcription factor EB)	3	-0.28	63.5	52.3
TFEB (transcription factor EB)	4	-0.169	66.6	59.2
BPTF (bromodomain PHD finger transcription factor)	1	-0.316	62.4	50.1
BPTF (bromodomain PHD finger transcription factor)	2	-0.266	117	97.6
BPTF (bromodomain PHD finger transcription factor)	3	-0.355	90.7	70.9
BPTF (bromodomain PHD finger transcription factor)	4	-0.48	103	74
GRIK3 (glutamate ionotropic receptor kainate type subunit 3)	1	-0.371	80.1	61.9
GRIK3 (glutamate ionotropic receptor kainate type subunit 3)	2	0.435	46.7	63.2
GRIK3 (glutamate ionotropic receptor kainate type subunit 3)	3	-0.357	77.7	60.6
GRIK3 (glutamate ionotropic receptor kainate type subunit 3)	4	-0.352	49.3	38.6
EPHA2 (EPH receptor A2)	1	-0.319	83.8	67.1
EPHA2 (EPH receptor A2)	2	-0.0166	79.8	78.9
EPHA2 (EPH receptor A2)	3	-0.00212	80.8	80.7
EPHA2 (EPH receptor A2)	4	0.587	37.4	56.2
DAPP1 (dual adaptor of phosphotyrosine and 3-phosphoinositides 1)	1	-0.326	91.1	72.7
DAPP1 (dual adaptor of phosphotyrosine and 3-phosphoinositides 1)	2	-0.392	83.7	63.8
DAPP1 (dual adaptor of phosphotyrosine and 3-phosphoinositides 1)	3	0.232	35	41.1
DAPP1 (dual adaptor of phosphotyrosine and 3-phosphoinositides 1)	4	-0.0696	102	96.7
DAPP1 (dual adaptor of phosphotyrosine and 3-phosphoinositides 1)	5	-0.323	126	101
PROCA1 (protein interacting with cyclin A1)	1	1.62	19.2	59.2
PROCA1 (protein interacting with cyclin A1)	2	-0.0481	96	92.9
PROCA1 (protein interacting with cyclin A1)	3	-0.21	65.2	56.3
PROCA1 (protein interacting with cyclin A1)	4	0.0647	106	110
ACACB (acetyl-CoA carboxylase beta)	1	0.844	37.3	66.9
ACACB (acetyl-CoA carboxylase beta)	2	-0.431	89.1	66.1
ACACB (acetyl-CoA carboxylase beta)	3	-0.477	78.9	56.7
ACACB (acetyl-CoA carboxylase beta)	4	-0.104	49.1	45.7
SCYL1 (SCY1 like pseudokinase 1)	1	-0.771	79.1	46.4
SCYL1 (SCY1 like pseudokinase 1)	2	0.0557	67.4	70.1
SCYL1 (SCY1 like pseudokinase 1)	3	-0.358	62.2	48.5
SCYL1 (SCY1 like pseudokinase 1)	4	0.18	55.3	62.6
CD1D (CD1d molecule)	1	-0.176	41.7	36.9
CD1D (CD1d molecule)	2	-0.0614	77.7	74.5
CD1D (CD1d molecule)	3	0.0041	83.1	83.3
CD1D (CD1d molecule)	4	0.301	29.7	36.6
FKBP1A (FKBP prolyl isomerase 1A)	1	0.064	99.2	104
FKBP1A (FKBP prolyl isomerase 1A)	2	-0.141	108	97.8
FKBP1A (FKBP prolyl isomerase 1A)	3	0.0161	97	98.1
FKBP1A (FKBP prolyl isomerase 1A)	4	-0.0198	90.6	89.3
FKBP1A (FKBP prolyl isomerase 1A)	5	-0.338	109	86.5
FKBP1A (FKBP prolyl isomerase 1A)	6	0.398	51.5	67.8
FKBP1A (FKBP prolyl isomerase 1A)	7	-0.12	113	104
FKBP1A (FKBP prolyl isomerase 1A)	8	-0.306	109	88.3
CCNK (cyclin K)	1	-0.23	45.4	38.7
CCNK (cyclin K)	2	0.431	33	44.4
CCNK (cyclin K)	3	-0.143	11.4	10.3
CCNK (cyclin K)	4	0.116	54.9	59.4
RB1CC1 (RB1 inducible coiled-coil 1)	1	0.61	34.5	52.6
RB1CC1 (RB1 inducible coiled-coil 1)	2	-0.0436	99.5	96.5
RB1CC1 (RB1 inducible coiled-coil 1)	3	0.104	63	67.7
RB1CC1 (RB1 inducible coiled-coil 1)	4	0.096	82.3	87.9
HAL (histidine ammonia-lyase)	1	-0.499	130	91.7
HAL (histidine ammonia-lyase)	2	-0.311	47.6	38.3
HAL (histidine ammonia-lyase)	3	-0.238	89.2	75.6
HAL (histidine ammonia-lyase)	4	-0.119	63.2	58.1
GSTA1 (glutathione S-transferase alpha 1)	1	-0.168	98.1	87.4
GSTA1 (glutathione S-transferase alpha 1)	2	-0.545	107	73.4
GSTA1 (glutathione S-transferase alpha 1)	3	-0.0307	102	99.5
GSTA1 (glutathione S-transferase alpha 1)	4	-0.185	106	93
RPL10P16 (ribosomal protein L10 pseudogene 16)	1	0.00751	88.5	89
NOS1 (nitric oxide synthase 1)	1	-0.0696	80.1	76.4
NOS1 (nitric oxide synthase 1)	2	0.384	61.8	80.7
NOS1 (nitric oxide synthase 1)	3	-0.346	94	73.9

14 of these entries, reformatted:
Target gene,reagent,log2 vehicle/camptothecin viability,viability with camptothecin (% of control),viability without drug (% of control)
ADCY2 (adenylate cyclase 2),3,-0.45,75.6,55.4
ADCY2 (adenylate cyclase 2),4,-0.272,83.3,68.9
TGIF1 (TGFB induced factor homeobox 1),1,-0.101,99.9,93.2
TGIF1 (TGFB induced factor homeobox 1),2,-0.172,65.3,58
TGIF1 (TGFB induced factor homeobox 1),3,-0.72,71.4,43.3
SLC25A29,1,0.387,44,57.5
SLC25A29,2,-0.142,76.3,69.2
SLC25A29,3,-0.122,74.7,68.7
ENPEP (glutamyl aminopeptidase),1,-0.0417,110,107
ENPEP (glutamyl aminopeptidase),2,0.479,61.6,85.8
ENPEP (glutamyl aminopeptidase),3,-0.433,107,79.4
ENPEP (glutamyl aminopeptidase),4,-0.0758,103,97.5
OR10A2 (olfactory receptor family 10 subfamily A member 2),1,-0.405,97.3,73.5
HIPK4 (homeodomain interacting protein kinase 4),1,-0.702,115,70.9
